Measurements from PMC11022108.

Chains of the proteins cited; added tags and fusions are not shown. Lines headed by an entry give the natural chain unless they say otherwise; changes in a name come on top.
UniProt O04922: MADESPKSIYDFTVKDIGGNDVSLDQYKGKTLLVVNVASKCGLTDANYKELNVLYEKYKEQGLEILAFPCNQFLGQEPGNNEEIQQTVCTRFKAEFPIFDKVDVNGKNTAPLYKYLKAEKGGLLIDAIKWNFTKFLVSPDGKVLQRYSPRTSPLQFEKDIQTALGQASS

Target: glutathione peroxidase-like GPXL2 fused to eYFP (Arabidopsis thaliana) (UniProt O04922)
Assay: FRET or BRET; FRET between mTurquoise2 (donor) and eYFP (acceptor) by sensitized emission in transfected A. thaliana leaf protoplasts; cells untreated, reduced with 1 mM DTT for 30 min, or first reduced and then oxidized with 5 mM H2O2 for 30 min

B1: cytosolic malate dehydrogenase 1 (MDH1) fused to a fluorescent protein (enzyme, UniProt P93819 1-332)
chain: MAKEPVRVLVTGAAGQIGYALVPMIARGIMLGADQPVILHMLDIPPAAEALNGVKMELIDAAFPLLKGVVATTDAVEGCTGVNVAVMVGGFPRKEGMERKDVMSKNVSIYKSQAAALEKHAAPNCKVLVVANPANTNALILKEFAPSIPEKNISCLTRLDHNRALGQISERLSVPVSDVKNVIIWGNHSSSQYPDVNHAKVQTSSGEKPVRELVKDDAWLDGEFISTVQQRGAAIIKARKLSSALSAASSACDHIRDWVLGTPEGTFVSMGVYSDGSYSVPSGLIYSFPVTCRNGDWSIVQGLPIDEVSRKKMDLTAEELKEEKDLAYSCLS
- binding: binds

No constants are given. Whether binding was seen depends on the method and setting. Binding seen in cells or lysates may run through a third protein. Binding calls can cover weak binding; strength is not graded here. Tags and fused reporters may be left off the sequences shown.
